The record followed here is PubChem BioAssay.

Assay [1] can be described thus: Drosophila SCA1 whole organism dose response for polyglutamine toxicity reduction (AID 1595). To be noted: Drosophila SCA1 polyglutamine model, at 1 µM, stronger effect = higher value.
A short description of assay [2]: PubChem AID 1597. To be noted: Drosophila SCA1 polyglutamine model, at 1 µM, stronger effect = higher value.

Molecules are shown by their SMILES. This is one part of the list. Measured potencies and affinities stand elsewhere. The source made no clear call on entries shown without one.

With `NC(=O)NC1NC(=O)NC1=O` (stereo not drawn), the results for the suppression of toxicity in assay [1] and in assay [2] were 2.86 and 1.43, respectively.

As to `CC(=O)CCC1C2=NC(=C\C3=NC(=C(/C)C4=NC(C)(C5[N-]/C(=C\2C)C(C)(CCC(=O)NCC(C)OP(=O)(O)O[C@@H]2[C@@H](CO)OC(n6cnc7cc(C)c(C)cc76)[C@@H]2O)C5CC(N)=O)C(C)(CC(N)=O)C4CCC(N)=O)/C(C)(CC(N)=O)C3CCC(N)=O)/C1(C)C.[CH2-][C@H]1OC(n2cnc3c(N)ncnc32)[C@H](O)[C@@H]1O.[Co+2]` (stereo partly drawn), the suppression of toxicity in assay [1] and in assay [2] was 0 throughout.

On to `O=C(/C=C/C=C/c1ccc2c(c1)OCO2)N1CCCCC1`, for which the suppression of toxicity worked out at 11.4 in assay [1] and 9.29 in assay [2].

Regarding `Cc1ccccc1C(OCCN(C)C)c1ccccc1` (stereo not drawn), the suppression of toxicity in assay [1] was 0; in assay [2], 4.29.

As to `CC(=O)OCC(=O)[C@@]1(O)CCC2C3CCC4=CC(=O)CC[C@]4(C)C3[C@@H](O)C[C@@]21C` (stereo partly drawn), the suppression of toxicity in assay [1] turned out to be 2.85; in assay [2] it was 3.58.

Regarding `CN1C(C(=O)Nc2ccccn2)=C(O)c2sccc2S1(=O)=O`, the figures for the suppression of toxicity in assay [1] and in assay [2] were 2.85 and 9.29, respectively.

`C#C[C@]1(O)CCC2C3CCC4=Cc5oncc5C[C@]4(C)C3CC[C@@]21C` (stereo partly drawn): the suppression of toxicity turned out to be 0 in assay [1] and 3.58 in assay [2].

In the case of `NS(=O)(=O)c1cc2c(cc1Cl)NC(C1CC3C=CC1C3)NS2(=O)=O` (stereo not drawn), the suppression of toxicity in assay [1] stood at 1.43; in assay [2], 4.29.

Consider `COc1cccc(C(=O)c2ccccc2O)c1O`, for which the values for the suppression of toxicity in assay [1] and in assay [2] were 0 and 0.715, respectively.

In the case of `CC(=O)OCC[N+](C)(C)C`, the results for the suppression of toxicity in assay [1] and in assay [2] were 2.85 and 7.14, respectively.

As to `NCCCCC(N)C(=O)NC(Cc1ccc(O)cc1)C(=O)NC(CCCCN)C(=O)O` (stereo not drawn), the suppression of toxicity turned out to be 0 in assay [1] and 7.21 in assay [2].

For the molecule `CCC(c1ccc(O)cc1)C(CC)c1ccc(O)cc1` (stereo not drawn), the values for the suppression of toxicity in assay [1] and in assay [2] were 4.29 and 0.715, respectively.

For `Cc1c(C(N)=O)cc([N+](=O)[O-])cc1[N+](=O)[O-]`, the figures for the suppression of toxicity in assay [1] and in assay [2] were 4.29 and 8.57, respectively.

Consider `COC(=O)[C@H]1[C@H]2C[C@H]3c4[nH]c5ccccc5c4CCN3C[C@H]2CC[C@@H]1O`, for which the results for the suppression of toxicity in assay [1] and in assay [2] were 1.43 and 7.86, respectively.

`Cc1nnc(NS(=O)(=O)c2ccc(N)cc2)s1`: the suppression of toxicity in assay [1] was 1.43; in assay [2], 3.58.

On to `CC(C)OC(=O)C(C)(C)Oc1ccc(C(=O)c2ccc(Cl)cc2)cc1`, for which the suppression of toxicity in assay [1] and in assay [2] was 0 each time.

`CN(C)CCCN1c2ccccc2CCc2ccccc21`: the suppression of toxicity in assay [1] is 1.43; in assay [2] it was 2.85.

Consider `c1ccc2c(CC3=NCCN3)cccc2c1`, for which the suppression of toxicity is 1.43 in assay [1] and 3.57 in assay [2].

`NNCCc1ccccc1`: the suppression of toxicity in assay [1] worked out at 8.57; in assay [2], 14.3.

Take `Cc1cc(N)c2ccccc2[n+]1CCCCCCCCCC[n+]1c(C)cc(N)c2ccccc21`: the suppression of toxicity turned out to be 1.43 in assay [1] and 2.15 in assay [2].

In the case of `CN(C)CCC(c1ccccc1)c1ccccn1` (stereo not drawn), the suppression of toxicity in assay [1] came to 4.29; in assay [2], 10.

Regarding `CC1(C)O[C@@H]2CC3C4CCC5=CC(=O)C=C[C@]5(C)[C@@]4(F)[C@@H](O)C[C@]3(C)[C@]2(C(=O)CO)O1` (stereo partly drawn), the suppression of toxicity in assay [1] was 0; in assay [2], 7.14.

On to `CC(C)(C)NCC(O)COc1cccc2c1C[C@H](O)[C@H](O)C2` (stereo partly drawn), for which the suppression of toxicity was 4.29 in assay [1] and 7.86 in assay [2].

For the molecule `CN1CCC[C@H]1c1cccnc1`, the suppression of toxicity in assay [1] turned out to be 0; in assay [2], 10.

In the case of `CSc1ccc2c(c1)C(N1CCN(C)CC1)Cc1ccccc1S2` (stereo not drawn), the suppression of toxicity worked out at 1.43 in assay [1] and 2.15 in assay [2].

Turning to `COC(=O)[C@H](c1ccccc1Cl)N1CCc2sccc2C1`, the suppression of toxicity in assay [1] was determined as 8.57; in assay [2], 11.4.

Consider `CC(CN(C)C)CN1c2ccccc2Sc2ccccc21` (stereo not drawn), for which the suppression of toxicity in assay [1] turned out to be 2.86; in assay [2] it was 0.715.

As to `CC(Cc1ccc(O)c(O)c1)C(C)Cc1ccc(O)c(O)c1` (stereo not drawn), the suppression of toxicity is 0 in assay [1] and 0.715 in assay [2].

For `CO[C@@]12[C@@H]3NC3CN1C1=C(C(=O)C(N)=C(C)C1=O)[C@@H]2COC(N)=O` (stereo partly drawn), the suppression of toxicity was 0 in assay [1] and 0.715 in assay [2].

As for `NC1=NCCN1CC(=O)O`, the results for the suppression of toxicity in assay [1] and in assay [2] were 7.14 and 5, respectively.

On to `Clc1ccc2c(c1)C(N1CCNCC1)=Nc1ccccc1O2`, for which the suppression of toxicity stood at 1.43 in assay [1] and 4.29 in assay [2].

As to `CC(=O)O[C@]1(C(C)=O)CCC2C3C=C(Cl)C4=CC(=O)[C@@H]5C[C@@H]5[C@]4(C)C3CC[C@@]21C` (stereo partly drawn), the suppression of toxicity in assay [1] is 1.43; in assay [2], 3.58.

In the case of `O=C1C(CCS(=O)c2ccccc2)C(=O)N(c2ccccc2)N1c1ccccc1` (stereo not drawn), the suppression of toxicity in assay [1] was 1.43; in assay [2] it was 3.57.

As for `c1ccc2c(c1)CCCC2C1=NCCN1` (stereo not drawn), the results for the suppression of toxicity in assay [1] and in assay [2] were 1.43 and 3.58, respectively.

For the molecule `CN1CCC(=C2c3ccccc3CC(=O)c3sccc32)CC1`, the figures for the suppression of toxicity in assay [1] and in assay [2] were 4.29 and 6.43, respectively.

On to `O=S(=O)(O)CCS`, for which the values for the suppression of toxicity in assay [1] and in assay [2] were 0 and 0.715, respectively.

Consider `CCN(CC)CCOC(=O)C(c1ccccc1)C1CCCCC1` (stereo not drawn), for which the suppression of toxicity in assay [1] was determined as 15.7; in assay [2], 17.1.

Consider `CC[N+](CC)(CC)CCOc1cccc(OCC[N+](CC)(CC)CC)c1OCC[N+](CC)(CC)CC`, for which the values for the suppression of toxicity in assay [1] and in assay [2] were 15.7 and 24.3, respectively.

With `O=C1C=CC(=C(c2ccc(O)cc2)c2ccc(O)cc2)C=C1`, the figures for the suppression of toxicity in assay [1] and in assay [2] were 0 and 5.71, respectively.

As for `C[N+]1(C)C2CC(OC(=O)[C@@H](CO)c3ccccc3)CC1C1OC12` (stereo partly drawn), the suppression of toxicity was 4.29 in assay [1] and 2.86 in assay [2].

For `CN(C)CCN(Cc1ccccc1)c1ccccn1`, the suppression of toxicity in assay [1] stood at 7.14; in assay [2] it was 12.9.

With `CCC1(C)CC(=O)NC1=O` (stereo not drawn), the suppression of toxicity stood at 5.79 in assay [1] and 6.52 in assay [2].

With `CC(C(=O)O)c1ccc(N2Cc3ccccc3C2=O)cc1` (stereo not drawn), the suppression of toxicity was determined as 2.85 in assay [1] and 7.86 in assay [2].

On to `CCN(CC)CCNC(=O)c1cc(Br)c(N)cc1OC`, for which the results for the suppression of toxicity in assay [1] and in assay [2] were 4.29 and 7.86, respectively.
